The reference is the same well before dosing, and untreated signal decays as well.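 Cells used are triple-negative breast cancer lines, either basal-like or mesenchymal-like, grown in the absence of fibroblasts. Lower red signal means mitochondrial integrity is lost, a surrogate for apoptosis.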
Experiments:
HCC1143 = experiment: relative JC-1 red fluorescence (viability) vs pre-drug, monoculture (fraction); higher = more viable cancer cells; conditions: coculture fibroblast: none (monoculture)
Experimental: (§1)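 JC-1 labelled TNBC cells grown in monoculture (density kept equal with unlabelled cancer cells) in 384-well plates in FluoroBrite medium, treated with one of 42 anticancer drugs at 0.1, 1, 10 or 100 uM. JC-1 red fluorescence (mitochondrial integrity, surrogate of apoptotic death) was read by plate reader every 8 h for 72 h. Values are normalised to each well's pre-drug value, with background from alamethicin. The stock of one drug was tenfold lower, so its dose labels may be too high. Monoculture values are repeated alongside each fibroblast plate and are averaged here.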

Hs578T = experiment: as above; conditions: coculture fibroblast: none (monoculture)
Experimental: as §1

CC(C)C[C@H](NC(=O)[C@H](Cc1ccccc1)NC(=O)c1cnccn1)B(O)O [Bortezomib]
relative JC-1 red fluorescence
Conditions	8 h	16 h	24 h	32 h	40 h	48 h	56 h	64 h	72 h
HCC1143, 0.1 µM	0.743	0.581	0.514	0.458	0.431	0.451	0.461	0.474	0.487
HCC1143, 1 µM	0.774	0.585	0.509	0.486	0.472	0.459	0.448	0.449	0.45
HCC1143, 10 µM	0.7322	0.435	0.378	0.3449	0.331	0.329	0.326	0.326	0.3283
HCC1143, 100 µM	0.737	0.483	0.408	0.355	0.335	0.329	0.317	0.318	0.314
Hs578T, 0.1 µM	0.7706	0.628	0.585	0.4551	0.4361	0.447	0.45	0.475	0.485
Hs578T, 1 µM	0.759	0.636	0.546	0.478	0.437	0.421	0.418	0.423	0.418
Hs578T, 10 µM	0.892	0.648	0.668	0.559	0.541	0.539	0.523	0.54	0.54
Hs578T, 100 µM	0.814	0.601	0.539	0.469	0.4354	0.4231	0.4173	0.4254	0.4195

Reference: the supplement of paper PMC6078165
